Common to all, as to experiment: log2 fold change, soluble protein after heating vs DMSO (PISA); higher = thermal stabilisation; K562 lysate, 10 uM; active = over 0.2 and 3.5 SD of the protein, either way, in both replicates (recomputed)
Compound in experiment [1]: O=C1NC(=O)C(c2cnc3ccccn23)=C1c1cn2c3c(cc(F)cc13)CN(C(=O)N1CCCCC1)CC2
In outline:
(§1)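 K562 pellets were dounce-homogenised in PBS pH 7.4 containing 1 mM MgCl2, and the crude extract, at 1 mg/mL protein, was exposed to 10 μM compound for 30 min. Aliquots were heated for 3 min across 48°C-58°C, pooled, brought to 0.5% NP-40 at 4°C and spun at 21,000xg for 90 min, with the supernatant taken as soluble protein. TMTpro 16plex LC-MS/MS with equalised channel sums quantified that protein. Values are log-two fold changes in thermal stability relative to solvent controls, taken from duplicates.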

Protein sequences, listed by entry. Tags and fused reporters are not part of them. Lines headed by an entry give the natural chain unless they say otherwise; changes in a name come on top.
UniProt Q96RG2: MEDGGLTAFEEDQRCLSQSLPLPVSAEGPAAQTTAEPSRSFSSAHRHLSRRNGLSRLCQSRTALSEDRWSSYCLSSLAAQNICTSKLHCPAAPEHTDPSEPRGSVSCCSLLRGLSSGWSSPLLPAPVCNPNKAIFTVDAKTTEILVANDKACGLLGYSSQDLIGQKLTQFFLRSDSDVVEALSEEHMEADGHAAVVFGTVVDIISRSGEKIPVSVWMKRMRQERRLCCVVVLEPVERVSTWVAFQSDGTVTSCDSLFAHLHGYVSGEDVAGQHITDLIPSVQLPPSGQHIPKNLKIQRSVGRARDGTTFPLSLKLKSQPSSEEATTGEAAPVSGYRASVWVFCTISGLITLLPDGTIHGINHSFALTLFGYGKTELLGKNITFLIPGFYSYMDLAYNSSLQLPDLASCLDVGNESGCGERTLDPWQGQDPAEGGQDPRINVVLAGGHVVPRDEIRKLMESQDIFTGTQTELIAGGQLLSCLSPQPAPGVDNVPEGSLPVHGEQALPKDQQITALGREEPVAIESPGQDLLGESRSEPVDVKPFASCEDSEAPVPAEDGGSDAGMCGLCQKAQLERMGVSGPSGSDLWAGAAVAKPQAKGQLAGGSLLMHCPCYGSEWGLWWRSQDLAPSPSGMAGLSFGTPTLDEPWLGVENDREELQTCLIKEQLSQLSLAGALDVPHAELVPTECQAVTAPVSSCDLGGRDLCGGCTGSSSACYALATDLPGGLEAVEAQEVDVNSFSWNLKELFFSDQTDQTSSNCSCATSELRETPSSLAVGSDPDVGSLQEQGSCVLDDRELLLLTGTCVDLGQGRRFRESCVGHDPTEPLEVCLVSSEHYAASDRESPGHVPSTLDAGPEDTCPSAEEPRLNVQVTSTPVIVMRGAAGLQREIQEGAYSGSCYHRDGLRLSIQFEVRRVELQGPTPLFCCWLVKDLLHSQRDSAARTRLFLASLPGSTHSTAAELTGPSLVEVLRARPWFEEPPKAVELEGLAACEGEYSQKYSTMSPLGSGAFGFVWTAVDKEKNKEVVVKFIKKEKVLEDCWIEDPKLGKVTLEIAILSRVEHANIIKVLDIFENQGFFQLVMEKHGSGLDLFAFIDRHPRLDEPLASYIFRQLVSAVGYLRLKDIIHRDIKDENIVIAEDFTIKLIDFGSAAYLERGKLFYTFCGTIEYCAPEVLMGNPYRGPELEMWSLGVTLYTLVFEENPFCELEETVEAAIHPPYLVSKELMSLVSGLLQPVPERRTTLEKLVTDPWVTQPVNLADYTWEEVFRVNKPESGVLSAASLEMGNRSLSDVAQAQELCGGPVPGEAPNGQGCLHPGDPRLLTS
UniProt Q13608: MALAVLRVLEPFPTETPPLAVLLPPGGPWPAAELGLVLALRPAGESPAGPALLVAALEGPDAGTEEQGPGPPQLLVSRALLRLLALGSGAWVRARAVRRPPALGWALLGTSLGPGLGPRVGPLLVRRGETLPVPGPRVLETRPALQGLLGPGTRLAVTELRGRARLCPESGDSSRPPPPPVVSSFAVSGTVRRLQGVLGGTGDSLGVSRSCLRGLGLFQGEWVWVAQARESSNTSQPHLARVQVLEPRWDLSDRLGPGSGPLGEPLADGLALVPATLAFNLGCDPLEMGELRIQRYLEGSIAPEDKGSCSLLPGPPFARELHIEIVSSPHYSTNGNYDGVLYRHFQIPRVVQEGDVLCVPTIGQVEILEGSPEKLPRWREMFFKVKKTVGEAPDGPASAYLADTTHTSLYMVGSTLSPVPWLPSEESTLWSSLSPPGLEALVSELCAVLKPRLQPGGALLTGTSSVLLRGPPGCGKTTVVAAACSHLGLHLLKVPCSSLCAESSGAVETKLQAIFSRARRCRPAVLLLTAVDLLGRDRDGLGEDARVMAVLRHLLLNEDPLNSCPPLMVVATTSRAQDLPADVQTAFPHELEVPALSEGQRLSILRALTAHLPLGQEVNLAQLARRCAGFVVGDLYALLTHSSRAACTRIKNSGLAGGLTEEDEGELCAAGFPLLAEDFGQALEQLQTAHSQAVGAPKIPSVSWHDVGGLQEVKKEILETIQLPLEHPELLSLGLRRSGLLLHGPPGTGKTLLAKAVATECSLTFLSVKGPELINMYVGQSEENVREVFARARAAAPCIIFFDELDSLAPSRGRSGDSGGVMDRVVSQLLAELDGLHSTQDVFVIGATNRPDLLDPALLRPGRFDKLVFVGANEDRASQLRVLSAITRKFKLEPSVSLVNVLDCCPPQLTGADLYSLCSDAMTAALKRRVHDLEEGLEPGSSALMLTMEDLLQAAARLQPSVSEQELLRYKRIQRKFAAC
UniProt Q86TB9: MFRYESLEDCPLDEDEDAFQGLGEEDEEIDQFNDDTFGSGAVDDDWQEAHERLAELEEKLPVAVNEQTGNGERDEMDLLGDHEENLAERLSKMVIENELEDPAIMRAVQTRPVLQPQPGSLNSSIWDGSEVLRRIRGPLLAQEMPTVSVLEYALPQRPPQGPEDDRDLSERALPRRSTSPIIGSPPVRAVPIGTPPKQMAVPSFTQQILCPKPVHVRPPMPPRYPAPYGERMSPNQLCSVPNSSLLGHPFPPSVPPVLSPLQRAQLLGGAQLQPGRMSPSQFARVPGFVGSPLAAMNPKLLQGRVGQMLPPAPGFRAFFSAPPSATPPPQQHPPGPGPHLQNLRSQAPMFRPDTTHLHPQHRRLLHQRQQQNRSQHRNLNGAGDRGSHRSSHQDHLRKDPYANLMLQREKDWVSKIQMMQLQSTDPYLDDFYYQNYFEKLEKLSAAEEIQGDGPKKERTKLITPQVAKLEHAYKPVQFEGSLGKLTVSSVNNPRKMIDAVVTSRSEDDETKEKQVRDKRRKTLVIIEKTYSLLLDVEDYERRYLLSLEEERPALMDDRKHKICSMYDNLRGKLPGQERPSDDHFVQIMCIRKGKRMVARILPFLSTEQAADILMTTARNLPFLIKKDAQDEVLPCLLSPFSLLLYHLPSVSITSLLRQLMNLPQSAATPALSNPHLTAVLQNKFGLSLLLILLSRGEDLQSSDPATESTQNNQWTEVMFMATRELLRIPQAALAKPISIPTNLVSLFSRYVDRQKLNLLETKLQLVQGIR
UniProt Q96MG8: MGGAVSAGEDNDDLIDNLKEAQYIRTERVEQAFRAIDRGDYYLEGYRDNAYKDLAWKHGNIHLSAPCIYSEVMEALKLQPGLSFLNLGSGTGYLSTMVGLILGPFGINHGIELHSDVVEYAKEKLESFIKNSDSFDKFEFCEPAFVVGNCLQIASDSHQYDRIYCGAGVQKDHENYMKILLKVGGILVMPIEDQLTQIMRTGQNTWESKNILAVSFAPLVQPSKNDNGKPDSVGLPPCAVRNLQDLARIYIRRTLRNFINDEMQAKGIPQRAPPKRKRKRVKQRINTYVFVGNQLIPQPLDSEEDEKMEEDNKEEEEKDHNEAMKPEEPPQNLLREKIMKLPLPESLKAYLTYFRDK
UniProt Q9UBV8: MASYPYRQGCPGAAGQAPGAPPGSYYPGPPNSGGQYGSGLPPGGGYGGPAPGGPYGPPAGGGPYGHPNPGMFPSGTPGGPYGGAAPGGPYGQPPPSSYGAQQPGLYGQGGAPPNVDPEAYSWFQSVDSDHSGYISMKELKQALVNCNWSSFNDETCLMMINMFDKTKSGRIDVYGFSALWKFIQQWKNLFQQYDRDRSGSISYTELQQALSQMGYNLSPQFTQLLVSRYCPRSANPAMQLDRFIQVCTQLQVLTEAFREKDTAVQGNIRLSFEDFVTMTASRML
UniProt O15534, whole entry, looked up: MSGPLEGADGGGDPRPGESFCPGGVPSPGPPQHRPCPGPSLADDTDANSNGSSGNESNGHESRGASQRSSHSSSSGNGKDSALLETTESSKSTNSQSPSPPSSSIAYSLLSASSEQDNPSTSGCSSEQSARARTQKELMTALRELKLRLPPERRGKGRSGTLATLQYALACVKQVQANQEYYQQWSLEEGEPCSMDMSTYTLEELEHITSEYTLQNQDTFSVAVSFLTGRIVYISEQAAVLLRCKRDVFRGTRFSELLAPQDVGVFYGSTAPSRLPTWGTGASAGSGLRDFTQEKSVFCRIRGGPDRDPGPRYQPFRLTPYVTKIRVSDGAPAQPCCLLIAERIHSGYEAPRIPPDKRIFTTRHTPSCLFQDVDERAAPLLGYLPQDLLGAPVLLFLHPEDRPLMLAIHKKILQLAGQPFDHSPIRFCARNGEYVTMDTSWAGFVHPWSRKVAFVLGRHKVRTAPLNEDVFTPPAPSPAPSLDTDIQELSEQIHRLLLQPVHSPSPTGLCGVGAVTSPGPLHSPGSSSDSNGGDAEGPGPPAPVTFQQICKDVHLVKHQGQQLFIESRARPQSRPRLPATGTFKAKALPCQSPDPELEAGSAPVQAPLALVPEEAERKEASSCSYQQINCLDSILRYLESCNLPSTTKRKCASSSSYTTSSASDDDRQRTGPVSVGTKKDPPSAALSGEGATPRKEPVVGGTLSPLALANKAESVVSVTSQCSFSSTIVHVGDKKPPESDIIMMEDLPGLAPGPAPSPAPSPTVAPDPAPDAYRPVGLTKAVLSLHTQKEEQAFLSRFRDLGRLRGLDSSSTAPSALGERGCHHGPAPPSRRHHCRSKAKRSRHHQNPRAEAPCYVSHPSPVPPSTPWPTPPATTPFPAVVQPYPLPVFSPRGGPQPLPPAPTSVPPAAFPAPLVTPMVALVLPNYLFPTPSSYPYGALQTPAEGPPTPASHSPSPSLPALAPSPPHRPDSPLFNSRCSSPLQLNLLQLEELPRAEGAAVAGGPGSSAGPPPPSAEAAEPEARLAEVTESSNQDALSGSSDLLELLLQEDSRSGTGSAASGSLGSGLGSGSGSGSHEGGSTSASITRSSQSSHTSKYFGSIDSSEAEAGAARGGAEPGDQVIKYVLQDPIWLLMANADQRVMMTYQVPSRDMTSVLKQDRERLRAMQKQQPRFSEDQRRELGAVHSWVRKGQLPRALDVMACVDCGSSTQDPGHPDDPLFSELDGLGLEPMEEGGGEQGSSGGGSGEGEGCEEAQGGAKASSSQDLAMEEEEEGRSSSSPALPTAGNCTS
UniProt P27815: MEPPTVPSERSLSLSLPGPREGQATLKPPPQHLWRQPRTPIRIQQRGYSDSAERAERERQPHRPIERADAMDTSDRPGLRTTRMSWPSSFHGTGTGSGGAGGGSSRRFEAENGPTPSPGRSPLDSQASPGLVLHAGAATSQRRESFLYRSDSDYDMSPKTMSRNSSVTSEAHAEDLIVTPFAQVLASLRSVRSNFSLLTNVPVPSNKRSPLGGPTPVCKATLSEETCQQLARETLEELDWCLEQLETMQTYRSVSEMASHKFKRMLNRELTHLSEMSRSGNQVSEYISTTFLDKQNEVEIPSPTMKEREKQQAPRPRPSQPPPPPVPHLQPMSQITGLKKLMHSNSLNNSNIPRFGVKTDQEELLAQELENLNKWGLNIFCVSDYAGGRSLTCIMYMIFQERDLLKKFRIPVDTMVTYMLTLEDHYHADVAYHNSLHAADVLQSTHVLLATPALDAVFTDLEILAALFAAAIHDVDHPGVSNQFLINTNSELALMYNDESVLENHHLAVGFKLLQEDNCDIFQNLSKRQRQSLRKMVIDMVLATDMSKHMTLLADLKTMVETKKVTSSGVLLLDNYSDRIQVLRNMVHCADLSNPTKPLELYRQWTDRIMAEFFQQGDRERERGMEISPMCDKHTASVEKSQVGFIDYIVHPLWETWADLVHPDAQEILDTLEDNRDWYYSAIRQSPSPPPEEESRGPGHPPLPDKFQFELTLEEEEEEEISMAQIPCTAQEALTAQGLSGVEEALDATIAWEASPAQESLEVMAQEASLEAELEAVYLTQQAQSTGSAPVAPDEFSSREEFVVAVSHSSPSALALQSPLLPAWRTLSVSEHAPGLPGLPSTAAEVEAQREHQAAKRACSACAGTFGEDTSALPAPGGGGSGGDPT
UniProt Q9H2J4: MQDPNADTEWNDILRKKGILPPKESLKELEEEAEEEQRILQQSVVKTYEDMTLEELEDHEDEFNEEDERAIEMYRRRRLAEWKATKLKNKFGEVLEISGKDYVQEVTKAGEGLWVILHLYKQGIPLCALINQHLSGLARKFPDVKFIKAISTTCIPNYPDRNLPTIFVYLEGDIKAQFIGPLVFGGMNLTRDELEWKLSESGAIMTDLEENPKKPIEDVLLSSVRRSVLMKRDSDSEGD
UniProt O43924: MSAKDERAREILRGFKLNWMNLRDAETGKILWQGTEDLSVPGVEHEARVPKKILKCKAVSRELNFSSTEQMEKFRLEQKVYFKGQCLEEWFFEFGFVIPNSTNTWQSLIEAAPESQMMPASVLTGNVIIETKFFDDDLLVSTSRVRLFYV

Compound in experiment [2]: NCC(=O)Nc1ccc(-n2nc(C(F)(F)F)cc2-c2ccc3c(ccc4ccccc43)c2)cc1
In a few lines: as §1

Compound in a further experiment: O=C(CCCCCCC(=O)Nc1ccccc1)NO [vorinostat]
In a few lines: as §1

Compound in a further experiment: O=C(O)c1ccc2c(c1)nc(Nc1cccc(Cl)c1)c1ccncc12 [silmitasertib]
In a few lines: as §1

Compound in a further experiment: c1cn2cc(-c3ccc4cn[nH]c4c3)nc(Nc3ccc(N4CCOCC4)cc3)c2n1 [entospletinib]
In outline: as §1

This is one part of the list.

Among the data in the supplement of paper PMC10849652 are log2 fold change values, retold here.

On to PDIA4, A0A499FI48, for which the log2 fold change in experiment [1] is inactive: 0.045.

As to PCBP2 (UniProt F8W0G4), the log2 fold change in experiment [2] is inactive: 0.083; with vorinostat it was inactive: -0.058; in the experiment with silmitasertib, inactive: 0.025; with entospletinib, inactive: -0.088.

For the target PASK (UniProt Q96RG2), the log2 fold change was inactive: -0.054 in experiment [2]; inactive: -0.017 in the experiment with vorinostat; inactive: 0.107 with silmitasertib; inactive: 0.018 in experiment [1]; inactive: -0.012 in the experiment with entospletinib.

As for PEX6 (UniProt Q13608), the log2 fold change with vorinostat is inactive: 0.025; with silmitasertib, inactive: 0.109; with entospletinib it was inactive: 0.048.

With PATL1 (UniProt Q86TB9), the log2 fold change was inactive: -0.016 in experiment [2]; inactive: 0.075 with vorinostat; inactive: -0.011 in the experiment with silmitasertib; inactive: 0.053 in experiment [1]; inactive: -0.019 with entospletinib.

PFN1 (UniProt I3L3D5): in the experiment with entospletinib, the log2 fold change is inactive: -0.194.

PCMTD1 (UniProt Q96MG8): the log2 fold change in experiment [2] is inactive: 0.075; with entospletinib, inactive: 0.003.

In the case of PEF1 (UniProt Q9UBV8), the log2 fold change was inactive: -0.186 in experiment [2]; active: 0.467 in the experiment with vorinostat; inactive: -0.005 with silmitasertib; inactive: -0.008 in experiment [1]; inactive: -0.009 with entospletinib.

Consider PEX1 (UniProt O43933), for which the figures for the log2 fold change (in experiment [2]; in experiment [1]; in the experiment with entospletinib) were inactive: -0.09, inactive: -0.035 and inactive: 0.278, respectively.

With PER1 (UniProt O15534), the log2 fold change in experiment [1] was inactive: 0.133.

As to PARP4 (UniProt Q9UKK3), the log2 fold change is inactive: -0.249 with vorinostat, inactive: 0.035 with silmitasertib, inactive: 0.105 in experiment [1] and inactive: 0.091 with entospletinib.

On to PCBP2 isoform 3 (UniProt Q15366), for which the log2 fold change was inactive: -0.071 in experiment [2]; active: -0.252 with vorinostat; inactive: 0.042 with silmitasertib; inactive: -0.035 in experiment [1]; inactive: 0.01 with entospletinib.

PGAP2 isoform 2 (UniProt Q9UHJ9): in the experiment with entospletinib, the log2 fold change is inactive: -0.105.

For PDE4A (UniProt P27815), the log2 fold change in experiment [2] was inactive: -0.118; in the experiment with vorinostat it was inactive: -0.133; with silmitasertib, inactive: 0.023; in experiment [1], inactive: -0.035; with entospletinib, inactive: -0.017.

For the target PDCL3 (UniProt Q9H2J4), the log2 fold change in experiment [2] was inactive: 0.074; with vorinostat it was inactive: 0.123; with silmitasertib, inactive: 0.004; in experiment [1] it was inactive: -0.011; in the experiment with entospletinib it was inactive: -0.001.

Regarding PDE6D (UniProt O43924), the log2 fold change in the experiment with vorinostat is inactive: 0.056; with silmitasertib, inactive: -0.106; with entospletinib it was inactive: -0.127.
